What all share (assay): pull-down
Experiment [1] deals with T1, Derlin-1 A45S (human) (UniProt Q9BUN8).
T1 sequence: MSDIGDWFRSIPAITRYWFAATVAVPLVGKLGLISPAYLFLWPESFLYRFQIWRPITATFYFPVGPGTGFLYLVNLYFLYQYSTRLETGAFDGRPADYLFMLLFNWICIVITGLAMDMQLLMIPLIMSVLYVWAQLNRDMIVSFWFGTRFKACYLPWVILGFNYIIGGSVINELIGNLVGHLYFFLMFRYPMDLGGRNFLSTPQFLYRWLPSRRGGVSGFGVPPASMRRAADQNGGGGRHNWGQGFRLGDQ

The chains behind the UniProt entries cited, without tags or fusion partners. Where a name states a change or a piece, a line headed by the entry shows the natural chain unless it says otherwise. A line that says so, or that is headed by a name, gives the form on record, which may keep a tag or linker.
cystic fibrosis transmembrane conductance regulator (CFTR)ΔF508 (P13569, form named): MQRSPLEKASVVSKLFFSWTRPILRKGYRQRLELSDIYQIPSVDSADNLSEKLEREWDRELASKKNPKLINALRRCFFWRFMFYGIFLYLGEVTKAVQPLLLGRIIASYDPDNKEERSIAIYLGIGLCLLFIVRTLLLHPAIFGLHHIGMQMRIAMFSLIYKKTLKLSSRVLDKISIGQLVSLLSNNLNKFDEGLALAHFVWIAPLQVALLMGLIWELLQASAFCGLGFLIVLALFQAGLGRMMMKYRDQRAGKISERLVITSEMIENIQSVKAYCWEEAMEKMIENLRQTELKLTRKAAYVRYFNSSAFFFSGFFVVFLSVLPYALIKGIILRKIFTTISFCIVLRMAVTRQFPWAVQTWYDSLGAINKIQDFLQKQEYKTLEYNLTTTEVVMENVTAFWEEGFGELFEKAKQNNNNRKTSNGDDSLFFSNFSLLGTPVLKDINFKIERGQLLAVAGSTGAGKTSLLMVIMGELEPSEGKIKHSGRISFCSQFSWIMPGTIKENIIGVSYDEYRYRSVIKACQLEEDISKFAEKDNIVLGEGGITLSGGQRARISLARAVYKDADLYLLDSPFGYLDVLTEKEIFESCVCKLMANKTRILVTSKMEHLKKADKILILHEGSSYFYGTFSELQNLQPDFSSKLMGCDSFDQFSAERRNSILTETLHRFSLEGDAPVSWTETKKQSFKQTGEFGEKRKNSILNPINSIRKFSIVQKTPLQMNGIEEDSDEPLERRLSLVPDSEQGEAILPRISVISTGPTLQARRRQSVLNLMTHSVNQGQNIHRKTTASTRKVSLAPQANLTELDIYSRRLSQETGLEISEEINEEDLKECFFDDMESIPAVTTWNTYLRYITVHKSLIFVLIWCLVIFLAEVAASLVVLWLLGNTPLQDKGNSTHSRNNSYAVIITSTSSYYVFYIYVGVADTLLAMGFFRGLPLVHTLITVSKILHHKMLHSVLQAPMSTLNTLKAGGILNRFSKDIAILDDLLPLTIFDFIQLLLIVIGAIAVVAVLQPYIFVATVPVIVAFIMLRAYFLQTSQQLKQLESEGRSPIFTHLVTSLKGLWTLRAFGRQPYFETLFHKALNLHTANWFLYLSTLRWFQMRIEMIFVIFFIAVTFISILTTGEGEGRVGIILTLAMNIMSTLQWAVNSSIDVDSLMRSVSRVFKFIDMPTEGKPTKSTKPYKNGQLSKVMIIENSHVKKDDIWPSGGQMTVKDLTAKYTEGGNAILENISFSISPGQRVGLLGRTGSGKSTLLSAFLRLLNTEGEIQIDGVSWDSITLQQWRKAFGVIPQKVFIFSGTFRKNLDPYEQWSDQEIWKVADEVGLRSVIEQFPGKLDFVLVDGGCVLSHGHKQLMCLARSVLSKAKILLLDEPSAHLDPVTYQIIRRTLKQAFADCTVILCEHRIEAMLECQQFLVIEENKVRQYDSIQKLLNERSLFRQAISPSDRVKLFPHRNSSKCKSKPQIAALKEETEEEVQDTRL

Experiment [2] addresses T2, Derlin-1 F91A (human) (UniProt Q9BUN8).
T2 sequence: T1 sequence with S45A, F91A

Experiment [3] has as its target T3, Derlin-1 R49A (human) (UniProt Q9BUN8).
T3 sequence: T1 sequence with S45A, R49A

Experiment [4] concerns the target T4, Derlin-1 W53A (human) (UniProt Q9BUN8).
T4 sequence: T1 sequence with S45A, W53A

Numbering of substitutions follows the chain as printed. Results are given in words; binding and its absence hold for the method and conditions named. In cells and extracts the contact can be indirect. Some results given as binding are weak or reduced against the parent protein; the word gives no strength.

Consider “cystic fibrosis transmembrane conductance regulator (CFTR)ΔF508 (from UniProt P13569 1-1480)”, for which the binding result is listed as “no binding” in experiment [1], “binds” in experiment [2], “no binding” in experiment [3] and “no binding” in experiment [4].

The values are drawn from article doi:10.1101/2021.06.15.448428.
